Test results published in the supplement of paper PMC8728848.
Some of the results follow.

Experiments:
Assay in all cases: glycan array binding signal (z-score within array); higher = stronger binding
Conditions in all cases: glycan notation: IUPAC condensed, linker removed
[1] = biological target: Gal(b1-4)GlcNAc(b1-3)Gal(b1-4)GlcNAc(b1-3)Gal(b1-4)GlcNAc(b1-3)Gal(b1-4)GlcNAc(b1-3)Gal(b1-4)GlcNAc(b1-2)Man(a1-3)[Gal(b1-4)GlcNAc(b1-3)Gal(b1-4)GlcNAc(b1-3)Gal(b1-4)GlcNAc(b1-3)Gal(b1-4)GlcNAc(b1-3)Gal(b1-4)GlcNAc(b1-2)Man(a1-6)]Man(b1-4)GlcNAc(b1-4)GlcNAc
In short: (§1)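 The binding signal is a Z-score computed within each array. Data were drawn from 3228 arrays in the Consortium for Functional Glycomics database, restricted to those with a known protein sequence. Scores were averaged over arrays of the same protein sequence at different concentrations or buffers, and over linkers, and negative values can be taken as non-binding.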

[2] = biological target: Gal(b1-4)GlcNAc(b1-3)Gal(b1-4)GlcNAc(b1-3)Gal(b1-4)GlcNAc(b1-3)Gal(b1-4)GlcNAc(b1-3)Gal(b1-4)GlcNAc(b1-2)Man(a1-3)[Gal(b1-4)GlcNAc(b1-3)Gal(b1-4)GlcNAc(b1-3)Gal(b1-4)GlcNAc(b1-3)Gal(b1-4)GlcNAc(b1-3)Gal(b1-4)GlcNAc(b1-2)Man(a1-6)]Man(b1-4)GlcNAc(b1-4)[Fuc(a1-6)]GlcNAc
In short: as §1

[3] = biological target: Gal(b1-4)GlcNAc(b1-3)Gal(b1-4)GlcNAc(b1-3)Gal(b1-4)GlcNAc(b1-3)Gal(b1-4)GlcNAc(b1-3)Gal(b1-4)GlcNAc(b1-2)[Gal(b1-4)GlcNAc(b1-3)Gal(b1-4)GlcNAc(b1-3)Gal(b1-4)GlcNAc(b1-3)Gal(b1-4)GlcNAc(b1-3)Gal(b1-4)GlcNAc(b1-6)]Man(a1-6)[Gal(b1-4)GlcNAc(b1-3)Gal(b1-4)GlcNAc(b1-3)Gal(b1-4)GlcNAc(b1-3)Gal(b1-4)GlcNAc(b1-3)Gal(b1-4)GlcNAc(b1-2)Man(a1-3)]Man(b1-4)GlcNAc(b1-4)[Fuc(a1-6)]GlcNAc
In short: as §1

[4] = biological target: Gal(b1-4)GlcNAc(b1-3)Gal(b1-4)GlcNAc(b1-3)Gal(b1-4)GlcNAc(b1-3)Gal(b1-4)GlcNAc(b1-3)Gal(b1-4)GlcNAc(b1-3)Gal(b1-4)GlcNAc(b1-2)Man(a1-3)[Gal(b1-4)GlcNAc(b1-3)Gal(b1-4)GlcNAc(b1-3)Gal(b1-4)GlcNAc(b1-3)Gal(b1-4)GlcNAc(b1-3)Gal(b1-4)GlcNAc(b1-3)Gal(b1-4)GlcNAc(b1-2)Man(a1-6)]Man(b1-4)GlcNAc(b1-4)GlcNAc
In short: as §1

[5] = biological target: Gal(b1-4)GlcNAc(b1-3)Gal(b1-4)GlcNAc(b1-3)GalNAc
In short: as §1

[6] = biological target: Gal(b1-4)GlcNAc(b1-3)Gal(b1-4)GlcNAc(b1-3)[Gal(b1-4)GlcNAc(b1-3)Gal(b1-4)GlcNAc(b1-6)]GalNAc
In short: as §1

[7] = biological target: Gal(b1-4)GlcNAc(b1-3)Gal(b1-4)GlcNAc(b1-6)[Gal(b1-3)]GalNAc
In short: as §1

[8] = biological target: Gal(b1-4)GlcNAc(b1-3)Gal(b1-4)[Fuc(a1-3)GlcNAc(b1-6)]Gal(b1-4)Glc
In short: as §1

[9] = biological target: Gal(b1-4)GlcNAc(b1-3)Gal(b1-4)[Fuc(a1-3)]GlcNAc(b1-3)Gal(b1-4)[Fuc(a1-3)]GlcNAc
In short: as §1

[10] = biological target: Gal(b1-4)GlcNAc(b1-3)GalNAc
In short: as §1

[11] = biological target: Gal(b1-4)GlcNAc(b1-3)[Fuc(a1-3)GlcNAc(b1-6)]Gal(b1-4)Glc
In short: as §1

[12] = biological target: Gal(b1-4)GlcNAc(b1-3)[Gal(b1-4)GlcNAc(b1-6)]Gal(b1-4)GlcNAc
In short: as §1

[13] = biological target: Gal(b1-4)GlcNAc(b1-3)[Gal(b1-4)GlcNAc(b1-6)]GalNAc
In short: as §1

[14] = biological target: Gal(b1-4)GlcNAc(b1-3)[GlcNAc(b1-6)]Gal(b1-4)GlcNAc
In short: as §1

[15] = biological target: Gal(b1-4)GlcNAc(b1-6)Gal(b1-4)GlcNAc
In short: as §1

[16] = biological target: Gal(b1-4)GlcNAc(b1-6)GalNAc
In short: as §1

[17] = biological target: Gal(b1-4)GlcNAc(b1-6)[Gal(b1-3)]GalNAc
In short: as §1

[18] = biological target: Gal(b1-4)GlcNAc(b1-6)[Gal(b1-4)GlcNAc(b1-3)]GalNAc
In short: as §1

[19] = biological target: Gal(b1-4)GlcNAc6P
In short: as §1

[20] = biological target: Gal(b1-6)Gal
In short: as §1

[21] = biological target: Gal3S(b1-3)GalNAc
In short: as §1

[22] = biological target: Gal3S(b1-3)GlcNAc
In short: as §1

[23] = biological target: Gal3S(b1-3)[Fuc(a1-4)]GlcNAc
In short: as §1

[24] = biological target: Gal3S(b1-4)Glc
In short: as §1

[25] = biological target: Gal3S(b1-4)Glc6S
In short: as §1

[26] = biological target: Gal3S(b1-4)GlcNAc
In short: as §1

[27] = biological target: Gal3S(b1-4)GlcNAc6S
In short: as §1

[28] = biological target: Gal3S(b1-4)[Fuc(a1-3)]Glc
In short: as §1

[29] = biological target: Gal3S(b1-4)[Fuc(a1-3)]Glc6S
In short: as §1

[30] = biological target: Gal3S(b1-4)[Fuc(a1-3)]GlcNAc
In short: as §1

[31] = biological target: Gal3S(b1-4)[Fuc(a1-3)]GlcNAc6S
In short: as §1

[32] = biological target: Gal3S4S(b1-4)GlcNAc
In short: as §1

[33] = biological target: Gal3S6S(b1-4)GlcNAc
In short: as §1

[34] = biological target: Gal3S6S(b1-4)GlcNAc6S
In short: as §1

[35] = biological target: Gal4S(b1-4)GlcNAc
In short: as §1

[36] = biological target: Gal4S6S(b1-4)GlcNAc
In short: as §1

[37] = biological target: Gal6P(b1-4)GlcNAc
In short: as §1

[38] = biological target: Gal6S(b1-3)GlcNAc
In short: as §1

[39] = biological target: Gal6S(b1-3)GlcNAc6S
In short: as §1

[40] = biological target: Gal6S(b1-4)Glc
In short: as §1

[41] = biological target: Gal6S(b1-4)Glc6S
In short: as §1

[42] = biological target: Gal6S(b1-4)GlcNAc
In short: as §1

[43] = biological target: Gal6S(b1-4)GlcNAc6S
In short: as §1

[44] = biological target: GalNAc(a1-3)Gal
In short: as §1

[45] = biological target: GalNAc(a1-3)GalNAc
In short: as §1

[46] = biological target: GalNAc(a1-3)GalNAc(b1-3)Gal(a1-4)Gal(b1-4)Glc
In short: as §1

[47] = biological target: GalNAc(a1-3)GalNAc(b1-3)Gal(a1-4)Gal(b1-4)GlcNAc
In short: as §1

[48] = biological target: GalNAc(b1-3)Gal
In short: as §1

[49] = biological target: GalNAc(b1-3)Gal(a1-4)Gal(b1-4)GlcNAc
In short: as §1

[50] = biological target: GalNAc(b1-3)Gal(a1-4)Gal(b1-4)GlcNAc(b1-3)Gal(b1-4)Glc
In short: as §1

[51] = biological target: GalNAc(b1-3)Gal(a1-6)Gal(b1-4)Glc
In short: as §1

[52] = biological target: GalNAc(b1-3)GalNAc
In short: as §1

[53] = biological target: GalNAc(b1-3)GlcNAc
In short: as §1

B1: NK11 (Sus scrofa) (peptide)
chain: KISKRILTGKK
B1 was tested, and the “glycan array binding signal (z-score)” value [1] was 1.31, the “glycan array binding signal (z-score)” value [2] was -0.483 and the “glycan array binding signal (z-score)” value [3] was 0.416. For the same binder, the “glycan array binding signal (z-score)” value [4] was 2.32, the “glycan array binding signal (z-score)” value [5] was 2.91 and the “glycan array binding signal (z-score)” value [6] was 3.55. For the same binder, the “glycan array binding signal (z-score)” value [7] was 1, the “glycan array binding signal (z-score)” value [8] was -0.277 and the “glycan array binding signal (z-score)” value [9] was -0.368. For the same binder, the “glycan array binding signal (z-score)” value [10] was -0.313, the “glycan array binding signal (z-score)” value [11] was 0.984 and the “glycan array binding signal (z-score)” value [12] was -0.152. For the same binder, the “glycan array binding signal (z-score)” value [13] was -0.392, the “glycan array binding signal (z-score)” value [14] was -0.631 and the “glycan array binding signal (z-score)” value [15] was -0.621. For the same binder, the “glycan array binding signal (z-score)” value [16] was -0.343, the “glycan array binding signal (z-score)” value [17] was -0.27 and the “glycan array binding signal (z-score)” value [18] was -0.609. The “glycan array binding signal (z-score)” value [19] was 0.202, the “glycan array binding signal (z-score)” value [20] was -0.797 and the “glycan array binding signal (z-score)” value [21] was 0.282. For the same binder, the “glycan array binding signal (z-score)” value [22] was 0.54, the “glycan array binding signal (z-score)” value [23] was 0.528 and the “glycan array binding signal (z-score)” value [24] was 1.28. For the same binder, the “glycan array binding signal (z-score)” value [25] was 0.768, the “glycan array binding signal (z-score)” value [26] was -0.361 and the “glycan array binding signal (z-score)” value [27] was 3.4. For the same binder, the “glycan array binding signal (z-score)” value [28] was 1.21, the “glycan array binding signal (z-score)” value [29] was 1.04 and the “glycan array binding signal (z-score)” value [30] was 2.52. For the same binder, the “glycan array binding signal (z-score)” value [31] was 1.8, the “glycan array binding signal (z-score)” value [32] was 0.324 and the “glycan array binding signal (z-score)” value [33] was 1.39. The “glycan array binding signal (z-score)” value [34] was 1.05, the “glycan array binding signal (z-score)” value [35] was 0.093 and the “glycan array binding signal (z-score)” value [36] was 0.494. The “glycan array binding signal (z-score)” value [37] was -0.08, the “glycan array binding signal (z-score)” value [38] was 0.136 and the “glycan array binding signal (z-score)” value [39] was 3.65. The “glycan array binding signal (z-score)” value [40] was 0.115, the “glycan array binding signal (z-score)” value [41] was 0.976 and the “glycan array binding signal (z-score)” value [42] was -0.042. For the same binder, the “glycan array binding signal (z-score)” value [43] was 2.58, the “glycan array binding signal (z-score)” value [44] was -0.634 and the “glycan array binding signal (z-score)” value [45] was -0.05. For the same binder, the “glycan array binding signal (z-score)” value [46] was -0.15, the “glycan array binding signal (z-score)” value [47] was 0.323 and the “glycan array binding signal (z-score)” value [48] was -0.435. The “glycan array binding signal (z-score)” value [49] was 0.262, the “glycan array binding signal (z-score)” value [50] was 0.414 and the “glycan array binding signal (z-score)” value [51] was -0.885. For the same binder, the “glycan array binding signal (z-score)” value [52] was -0.863 and the “glycan array binding signal (z-score)” value [53] was -0.718.
